Results reported in PubChem BioAssay AID2685 (National Center for Advancing Translational Sciences (NCATS), 2010).
Screen size: about 320,000 compounds; about 2,100 (0.66%) were called active. This list was built around the results that the source calls inconclusive (neither active nor inactive); the mix of calls is not that of the screen. Calls follow the shape of the dose curve; as a rule, active = well fitted inhibition curve with a large enough effect in the signal ratio, with a control signal flat (not every such curve was filed as active); inconclusive = small, poorly fitted or top-dose-only effect, or effect the other way, or a change in a side signal; inactive = flat fitted curve, though single readings scatter; the % refers to the signal ratio. A potency beside an inconclusive call is a rough fit, not a confirmed value.

Test: qHTS Assay for Lipid Storage Modulators in Drosophila S3 Cells
Settings: BODIPY lipid droplet fluorescence, 18-24 h, cells fed with added oleic acid; lipid storage change, negative = inhibition: at 46.1 µM (top of the series) unless noted
How it was run: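 Laser-scanning cytometry quantifies lipid droplet accumulation (500–530 nm total intensity; droplet/cell object ratio) in oleic acid-fed (400 uM added) Drosophila S3 cells treated with a concentration series. 20 uM Triacsin C defined 100% inhibition.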
% is scaled to controls: 0 for no effect and ±100 for the full control effect; potency is read from the fitted curve at half-maximal effect.

SMILES | lipid storage change, negative = inhibition | Potency
CCN(CC)S(=O)(=O)c1cccc(C(=O)OCC(=O)Nc2ccc3c(c2)c2ccccc2n3CC)c1 | inconclusive: 20.2% | –
CC(C)Cc1nnc(NC(=O)CCC(=O)NC2CC2)s1 | – | inconclusive: 0.0046 µM [falling, full curve, poor fit]
CCOC(=O)[C@@H]1[C@H]2COc3ccccc3[C@H]2N2C(=O)N(c3cccc(F)c3)C(=O)[C@]12C | inconclusive: 15.7% | –
CCOC(=O)N1CCN(C(=O)c2ccc(OC)c(S(=O)(=O)N3CCOCC3)c2)CC1 | inconclusive: -3.28% | –
COCCNC(=O)C(c1ccc(Cl)cc1)N(CCOC)C(=O)CCC(=O)Nc1ccccn1 (stereo not given) | inconclusive: -93.7% | –
Cc1ccc(C)c(SCC(=O)Nc2ccc(C)c(S(=O)(=O)N3CCOCC3)c2)c1 | inconclusive: -75.5% | –
COC(=O)c1nn(-c2ccc(C)cc2)ccc1=O | inconclusive: -67.7% [cytotoxic] [at 0.00295 µM] | –
Cc1c(C#N)c2ccccc2n1C | inconclusive: 31.3% | –
CC(=O)Nc1ccc(S(=O)(=O)NCCC(=O)OCC(=O)N2CCN(C(=O)c3ccco3)CC2)cc1 | inconclusive: 22.2% | –
O=C(NN=C1CCCC1)c1ccccc1OCCOc1ccccc1 | inconclusive: 13.9% | –
O=C(CSc1nnc(-c2ccco2)o1)NC1CCCCCC1 | inconclusive: -0.638% | –
COc1ccc(OC)c(C2C(C(=O)Nc3nc4ccccc4s3)=C(C)NC3=C2C(=O)CCC3)c1 (stereo not given) | – | inconclusive: 23.1 µM [falling, single point]
CCC(=O)c1ccc(OCC(=O)N2CCN(C(=O)c3ccccc3)CC2)cc1 | – | inconclusive: 14.6 µM [activator, partial curve, poor fit]
COc1ccc(Br)c(C(=O)NCCC(C)C)c1 | – | inconclusive: 10.3 µM [activator, partial curve]
COc1ccccc1C(=O)NC(=O)COC(=O)CCS(=O)(=O)c1ccc(C)cc1 | inconclusive: -2.91% | –
Cc1sc2ncnc(SCC(=O)Nc3ncccc3O)c2c1C | inconclusive: 16.3% | –
CCOC(=O)c1cn(CC)c2cc(F)c(F)cc2c1=O | – | inconclusive: 16.4 µM [activator, single point]
CCn1c(C)c(C(C)=O)c(SC)nc1=S | – | active: 23.1 µM
CC1(C)Cc2nc3oc4c(=O)n(CC(=O)Nc5cccc(Cl)c5)cnc4c3cc2CO1 | inconclusive: -14.6% | –
NC(=O)c1ccc(CN2CCc3ccccc3C2)cc1 | – | inconclusive: 5.17 µM [falling, full curve, poor fit]
CCOc1ccccc1NC(=O)CSc1nnnn1-c1ccc(C(=O)OC)cc1 | – | inconclusive: 7.31 µM [activator, partial curve]
Cc1cccc(N/N=C(\C#N)S(=O)(=O)C(C)(C)C)c1 | inconclusive: 2.32% | –
O=C1OCC=C1NNC(=O)c1cccnc1 | inconclusive: -36% | –
CCOc1ccc(NC(=O)NCCN2CCN(c3cccc(C)c3C)CC2)cc1 | inconclusive: 12.3% | –
Cc1ccc(NC(=O)C(=O)NCCCN2CCOCC2)c(C)c1 | inconclusive: 12.8% | –

Grouped by structure: those above with an aryl thioether with sulfur outside any ring.
SMILES | lipid storage change, negative = inhibition | Potency
Cc1ccc(C)c(SCC(=O)Nc2ccc(C)c(S(=O)(=O)N3CCOCC3)c2)c1 | inconclusive: -75.5% | –
O=C(CSc1nnc(-c2ccco2)o1)NC1CCCCCC1 | inconclusive: -0.638% | –
Cc1sc2ncnc(SCC(=O)Nc3ncccc3O)c2c1C | inconclusive: 16.3% | –
CCn1c(C)c(C(C)=O)c(SC)nc1=S | – | active: 23.1 µM
CCOc1ccccc1NC(=O)CSc1nnnn1-c1ccc(C(=O)OC)cc1 | – | inconclusive: 7.31 µM [activator, partial curve]

An excerpt of these results, as comma-separated lines.
SMILES,"lipid storage change, negative = inhibition",Potency
CCC(=O)c1ccc(OCC(=O)N2CCN(C(=O)c3ccccc3)CC2)cc1,–,"inconclusive: 14.6 µM [activator, partial curve, poor fit]"
COc1ccc(Br)c(C(=O)NCCC(C)C)c1,–,"inconclusive: 10.3 µM [activator, partial curve]"

Remaining list, next part:

SMILES | lipid storage change, negative = inhibition | Potency
Cc1ccccc1-c1ccccc1N | inconclusive: -14.8% | –
Cc1cc(C)c(NC(=O)CCCC(=O)O)c(Cl)c1 | inconclusive: 20% | –
O=C(CNCCc1ccc(Cl)cc1Cl)NCc1ccco1 | inconclusive: 49.1% | –
CC(C)c1cc(NC(=O)CSc2nnc(-c3ccccc3F)n2C)on1 | inconclusive: 6.2% | –
CCN(CC)CCC(=O)Nc1cccc2c1C(=O)c1ccccc1C2=O | inconclusive: -63.9% | –
CCOc1ccccc1-c1n[nH]c(=S)o1 | – | inconclusive: 0.0065 µM [falling, full curve, poor fit]
COc1ccc(CCNC(=O)c2ccccc2NS(=O)(=O)c2c(F)cccc2F)cc1 | inconclusive: -27.4% | –
Cc1cccc(C)c1NC(=O)COC(=O)c1ccccc1O | – | inconclusive: 0.146 µM [activator, single point]
FC(F)(F)c1cc(-c2ccco2)nc(NCc2ccc(Cl)cc2)n1 | – | inconclusive: 2.59 µM [activator, partial curve, poor fit]
COc1ccc(NC2CCCN(C(=O)Cn3ccc(C)n3)C2)cc1OC (stereo not given) | inconclusive: 5.31% | –
O=[N+]([O-])c1cccc(-c2noc3c2-c2nc(Cc4cccc5ccccc45)sc2CC3)c1 | inconclusive: 38.5% | –
Cc1cccc(N2CN(Cc3ccco3)CNC2=S)c1C | inconclusive: 24% | –
Cc1cc(N2CCOCC2)nc(SCC(=O)OCc2ccccc2)n1 | inconclusive: 6.78% | –
Cc1ccc(C(O)Cn2nc(C)cc2C)cc1 (stereo not given) | – | inconclusive: 0.58 µM [activator, full curve]
COc1ccc(NC(=O)COc2ccc(N(C)S(=O)(=O)c3ccc(Cl)cc3)cc2)cc1 | inconclusive: -44.1% | –
O=C(O)c1c2c(nc3ccccc13)/C(=C/c1cccc([N+](=O)[O-])c1)CCC2 | inconclusive: 178% | –
CC(OC(=O)c1ccccn1)C(=O)Nc1ccc(C(F)(F)F)cc1 (stereo not given) | inconclusive: 15.6% | –
COc1c(OC2OC(C(=O)O)C(O)C(O)C2O)cc(O)c2c(=O)cc(-c3ccccc3)oc12 (stereo not given) | inconclusive: 0.348% | –
CC(C)(C)NC(=O)COC(=O)c1ccc(S(=O)(=O)N2CCCC2)cc1 | inconclusive: -75.2% | –
COc1ccc(/C=C2\SC(=S)N(NS(=O)(=O)c3ccc(C)cc3)C2=O)c(OC)c1 | inconclusive: 106% | –
Cc1ccc2c(c1)c1c(n2CC(O)CN2CCOCC2)CCCC1 (stereo not given) | inconclusive: 36.6% | –
CC(C)(Cc1ccc(O)cc1)NC(=O)CC(=O)N=Nc1c(O)[nH]c2cc(Br)ccc12 | inconclusive: -13.1% | –
Cc1ccc([N+](=O)[O-])cc1NC(=O)c1ccoc1C | inconclusive: -29% | –
CC1CCN(C(=O)CSCC(=O)Nc2nc(-c3cccs3)cs2)CC1 | – | inconclusive: 14.6 µM [falling, partial curve]
COc1ccc(/C=C2\N=C(C)N(c3ccc4ccccc4c3)C2=O)cc1OC | – | active: 5.17 µM
